In assay [1] the target is MID1-GFP, full-length MID1 with C-terminal GFP (Arabidopsis thaliana) (UniProt Q9LNC0). The assay is described as follows: co-IP; GFP-tagged bait and 3×Flag-tagged prey transiently co-expressed in Arabidopsis protoplasts; GFP Trap beads overnight at 4 °C; 50 mM Tris-Cl pH 7.5, 150 mM NaCl, 1 mM EDTA, 0.5% NP40 (wash 1% NP40), 1 mM DTT; blots with anti-GFP and anti-Flag.
Assay [2] addresses T1, WTF9-GFP, full-length WHAT’S THIS FACTOR 9 with C-terminal GFP (Arabidopsis thaliana) (UniProt Q9ZUZ6).
T1 sequence: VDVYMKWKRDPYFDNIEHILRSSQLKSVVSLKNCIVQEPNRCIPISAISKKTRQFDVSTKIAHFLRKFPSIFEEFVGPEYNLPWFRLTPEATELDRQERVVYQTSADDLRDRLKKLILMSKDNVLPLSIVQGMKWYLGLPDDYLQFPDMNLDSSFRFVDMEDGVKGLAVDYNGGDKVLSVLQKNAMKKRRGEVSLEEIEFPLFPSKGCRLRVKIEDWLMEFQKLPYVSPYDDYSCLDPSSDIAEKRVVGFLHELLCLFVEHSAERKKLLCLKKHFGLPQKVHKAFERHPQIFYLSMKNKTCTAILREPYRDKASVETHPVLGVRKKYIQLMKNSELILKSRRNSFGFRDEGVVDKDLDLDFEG
Described as above.

By UniProt entry, the sequences of proteins in these tests, tags left out. Where a name states a change or a piece, a line headed by the entry shows the natural chain unless it says otherwise.
UniProt Q9M9X9: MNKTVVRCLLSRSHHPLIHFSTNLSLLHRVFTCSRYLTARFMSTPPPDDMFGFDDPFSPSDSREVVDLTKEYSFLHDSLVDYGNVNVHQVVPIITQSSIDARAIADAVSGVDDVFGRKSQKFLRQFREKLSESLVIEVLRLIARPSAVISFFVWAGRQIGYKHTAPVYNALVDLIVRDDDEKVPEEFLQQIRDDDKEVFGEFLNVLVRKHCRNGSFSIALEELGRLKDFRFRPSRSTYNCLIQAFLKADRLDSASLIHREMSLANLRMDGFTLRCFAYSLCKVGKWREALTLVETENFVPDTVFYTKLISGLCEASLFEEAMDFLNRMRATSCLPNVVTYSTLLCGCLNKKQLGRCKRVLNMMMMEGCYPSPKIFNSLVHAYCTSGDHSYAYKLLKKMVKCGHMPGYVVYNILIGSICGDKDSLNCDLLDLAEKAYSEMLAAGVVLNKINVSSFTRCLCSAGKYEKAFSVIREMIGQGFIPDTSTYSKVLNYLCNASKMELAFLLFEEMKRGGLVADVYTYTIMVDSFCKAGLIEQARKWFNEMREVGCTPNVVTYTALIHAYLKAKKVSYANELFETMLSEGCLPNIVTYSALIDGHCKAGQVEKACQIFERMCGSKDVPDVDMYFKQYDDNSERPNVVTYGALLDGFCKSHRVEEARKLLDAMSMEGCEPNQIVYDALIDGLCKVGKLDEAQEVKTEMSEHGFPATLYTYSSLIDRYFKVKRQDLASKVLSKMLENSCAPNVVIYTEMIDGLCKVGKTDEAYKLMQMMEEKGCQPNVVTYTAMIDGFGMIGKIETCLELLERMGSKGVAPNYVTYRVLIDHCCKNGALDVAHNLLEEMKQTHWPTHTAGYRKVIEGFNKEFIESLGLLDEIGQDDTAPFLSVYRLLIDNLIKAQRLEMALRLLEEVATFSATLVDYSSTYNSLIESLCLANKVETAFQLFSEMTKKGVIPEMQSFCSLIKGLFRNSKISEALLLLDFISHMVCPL
UniProt Q8VYD9: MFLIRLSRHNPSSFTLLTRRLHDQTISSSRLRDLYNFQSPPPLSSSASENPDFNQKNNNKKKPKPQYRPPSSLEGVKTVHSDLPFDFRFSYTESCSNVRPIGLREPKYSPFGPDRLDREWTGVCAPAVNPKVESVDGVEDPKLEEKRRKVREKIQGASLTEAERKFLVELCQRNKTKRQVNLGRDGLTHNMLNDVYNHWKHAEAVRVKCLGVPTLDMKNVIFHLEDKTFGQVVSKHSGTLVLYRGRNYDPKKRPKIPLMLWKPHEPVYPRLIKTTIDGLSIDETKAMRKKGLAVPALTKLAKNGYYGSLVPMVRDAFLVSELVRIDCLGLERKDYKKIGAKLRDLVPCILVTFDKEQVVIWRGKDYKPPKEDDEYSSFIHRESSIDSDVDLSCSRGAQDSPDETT
UniProt Q9LUW5: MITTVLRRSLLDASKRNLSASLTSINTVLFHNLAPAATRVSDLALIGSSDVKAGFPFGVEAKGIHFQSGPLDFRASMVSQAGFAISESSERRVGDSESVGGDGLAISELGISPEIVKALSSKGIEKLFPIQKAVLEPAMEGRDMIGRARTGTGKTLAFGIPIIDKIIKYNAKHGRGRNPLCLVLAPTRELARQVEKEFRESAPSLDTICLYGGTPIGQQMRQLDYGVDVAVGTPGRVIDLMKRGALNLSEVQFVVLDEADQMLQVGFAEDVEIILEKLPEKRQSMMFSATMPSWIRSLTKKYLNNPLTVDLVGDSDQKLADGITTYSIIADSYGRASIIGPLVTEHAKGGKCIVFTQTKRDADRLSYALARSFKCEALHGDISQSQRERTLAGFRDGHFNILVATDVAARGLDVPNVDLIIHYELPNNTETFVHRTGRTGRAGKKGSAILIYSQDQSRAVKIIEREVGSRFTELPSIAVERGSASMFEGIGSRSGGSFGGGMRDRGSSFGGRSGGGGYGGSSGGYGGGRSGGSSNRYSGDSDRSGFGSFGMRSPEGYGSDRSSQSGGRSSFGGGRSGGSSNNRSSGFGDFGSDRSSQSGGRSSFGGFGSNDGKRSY

In assay [3] the target is T2, CLuc-MID1 (Arabidopsis thaliana) (UniProt Q9LNC0).
T2 sequence: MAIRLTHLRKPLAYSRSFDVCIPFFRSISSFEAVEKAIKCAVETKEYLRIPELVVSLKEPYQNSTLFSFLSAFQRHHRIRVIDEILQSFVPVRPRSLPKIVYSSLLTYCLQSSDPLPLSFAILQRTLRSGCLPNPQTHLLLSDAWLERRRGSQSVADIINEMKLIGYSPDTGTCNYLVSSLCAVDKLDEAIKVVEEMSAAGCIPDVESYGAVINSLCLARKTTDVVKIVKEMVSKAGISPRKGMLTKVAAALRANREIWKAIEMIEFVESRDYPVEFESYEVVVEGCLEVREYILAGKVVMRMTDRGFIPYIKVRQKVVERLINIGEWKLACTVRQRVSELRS
The assay is described as follows: split reporter; firefly luciferase complementation imaging; NLuc and CLuc fusions co-infiltrated into N. benthamiana leaves, 22 °C for 72 h, CCD imaging.

The target of assay [4] is CLuc-MTSF1 (Arabidopsis thaliana) (UniProt Q9M9X9). The assay is described as above.

We go through eight molecules from paper PMC7005036.

Results are given in words; binding and its absence hold for the method and conditions named. In cells and extracts the contact can be indirect. Binding can be weak; no strength is given. Where a sequence is shown, tags or fusion partners need not be part of it.

“MCSF1-3×Flag, full-length MITOCHONDRIAL CAF-LIKE SPLICING FACTOR 1 with C-terminal 3×Flag (from UniProt Q8VYD9)”: the values for the binding result in assay [1] and in assay [2] were “binds” and “no binding”, respectively.

For “MID1-3×Flag, full-length MID1 with C-terminal 3×Flag (from UniProt Q9LNC0)”, the binding entry was “binds” in assay [1] and “no binding” in assay [2].

For MID1-NLuc (from UniProt Q9LNC0), the binding result in assay [3] and in assay [4] was “binds” in each case.

For the molecule “MTSF1-3×Flag, full-length MITOCHONDRIAL STABILITY FACTOR 1 with C-terminal 3×Flag (from UniProt Q9M9X9)”, the values for the binding result in assay [1] and in assay [2] were “binds” and “no binding”, respectively.

Consider “PMH2-3×Flag, full-length PUTATIVE MITOCHONDRIAL RNA HELICASE 2 with C-terminal 3×Flag (from UniProt Q9LUW5)”, for which the binding result in assay [1] and in assay [2] was “binds” throughout.

For “nMAT1-3×Flag, full-length nMAT1 with C-terminal 3×Flag (Arabidopsis thaliana)”, in assay [2], the binding entry was “no binding”.

B1: ODB1-3×Flag, full-length O… DNA-BINDING PROTEIN 1 with C-terminal 3×Flag (protein, UniProt Q9FVV7 38-176)
chain: STETENDVPTSGISRPLAEILKELNKKVPDSVIRTRVEDGCSIKYIPWHIVNRIMNMHAPEWSGEVRSVTYSPDGNTVTVAYRVTLYGTDAEIFRESTGTTSVDDKGYGDAVQKAEAMAFRRACARFGLGLHLYHEDAL
As to B1, the binding entry in assay [1] is “binds”.

B2: WTF9-NLuc (protein, UniProt Q9ZUZ6 25-387)
chain: VDVYMKWKRDPYFDNIEHILRSSQLKSVVSLKNCIVQEPNRCIPISAISKKTRQFDVSTKIAHFLRKFPSIFEEFVGPEYNLPWFRLTPEATELDRQERVVYQTSADDLRDRLKKLILMSKDNVLPLSIVQGMKWYLGLPDDYLQFPDMNLDSSFRFVDMEDGVKGLAVDYNGGDKVLSVLQKNAMKKRRGEVSLEEIEFPLFPSKGCRLRVKIEDWLMEFQKLPYVSPYDDYSCLDPSSDIAEKRVVGFLHELLCLFVEHSAERKKLLCLKKHFGLPQKVHKAFERHPQIFYLSMKNKTCTAILREPYRDKASVETHPVLGVRKKYIQLMKNSELILKSRRNSFGFRDEGVVDKDLDLDFEG
As to B2, the binding result in assay [4] is given as “no binding”.
